The values below come from the odorant receptor screen of Mainland et al. (2015).

Structures are written as SMILES. “And” between values parts separate entries of the source, which are not always exact repeats. Equal values may be shown once. Some of the results follow. Single wells; the ratio to wells without odorant was worked out here, and repeats agree poorly.

One experiment concerns OR5M1 S282T clone 1208. The experiment is described as follows: odorant receptor activation (CRE luciferase / Renilla) (fold of no-odor wells); higher = more activation. Conditions: 100 µM.
`CS` [methanethiol] displayed an odorant receptor activation of 0.869.

`CCC(C)=O` [2-butanone] gave an odorant receptor activation of 0.876.

In the case of `CCOc1cc(C=O)ccc1O` [ethyl vanillin], the odorant receptor activation is 1.15 and 0.786.

In the case of `CCCCOC(C)=O` [butyl acetate], the odorant receptor activation turned out to be 1.12.

In a further experiment the test system is OR5M10 V69L clone 1125. Described as above. The following applies: 100 µM.
`CS` [methanethiol] registered an odorant receptor activation of 0.768.

On to `CCC(C)=O` [2-butanone], for which the odorant receptor activation was determined as 0.913.

`CCOc1cc(C=O)ccc1O` [ethyl vanillin]: the odorant receptor activation came out at 1.25.

Compound `CCCCOC(C)=O` [butyl acetate] came in with an odorant receptor activation of 0.875.

A further experiment deals with OR5M11 clone 1236. The experiment is described as above. Conditions: 100 µM.
In the case of `CS` [methanethiol], the odorant receptor activation turned out to be 0.94.

The compound `CCC(C)=O` [2-butanone] had an odorant receptor activation of 1.01.

In turn, `CCOc1cc(C=O)ccc1O` [ethyl vanillin] registered an odorant receptor activation of 0.779.

Compound `CCCCOC(C)=O` [butyl acetate] gave an odorant receptor activation of 0.623.

Another experiment deals with OR5M8 clone 1523. Described as above. Conditions: 100 µM.
For `CS` [methanethiol], the odorant receptor activation amounted to 0.828.

`CCC(C)=O` [2-butanone]: the odorant receptor activation was found to be 1.17.

Regarding `CCOc1cc(C=O)ccc1O` [ethyl vanillin], the odorant receptor activation was 0.804 and 2.28 and 0.906.

`CCCCOC(C)=O` [butyl acetate]: the odorant receptor activation is 1.18.

The test system of the next experiment is OR5M9 clone 1194. The description is as above. Conditions: 100 µM.
With `CS` [methanethiol], the odorant receptor activation was determined as 0.991.

As to `CCC(C)=O` [2-butanone], the odorant receptor activation is 1.05.

`CCOc1cc(C=O)ccc1O` [ethyl vanillin]: the odorant receptor activation was 1.24 and 1.

Consider `CCCCOC(C)=O` [butyl acetate], for which the odorant receptor activation was 1.04.

Another experiment relates to OR5P2 clone 1185. The description is as above. The following applies: 100 µM.
Consider `CS` [methanethiol], for which the odorant receptor activation is 1.16.

As for `CCC(C)=O` [2-butanone], the odorant receptor activation is 0.78.

As to `CCOc1cc(C=O)ccc1O` [ethyl vanillin], the odorant receptor activation is 1.05 and 1.09.

With `CCCCOC(C)=O` [butyl acetate], the odorant receptor activation came to 1.1.

A further experiment concerns OR5P3 clone 1115. Described as above. The following applies: 100 µM.
Take `CS` [methanethiol]: the odorant receptor activation turned out to be 1.31.

Turning to `CCC(C)=O` [2-butanone], the odorant receptor activation was determined as 4.62.

On to `CCOc1cc(C=O)ccc1O` [ethyl vanillin], for which the odorant receptor activation is 0.964 and 1.27.

With `CCCCOC(C)=O` [butyl acetate], the odorant receptor activation is 1.03.

The subject of another experiment is OR5R1 clone 1162. Described as above. The following applies: 100 µM.
As to `CS` [methanethiol], the odorant receptor activation came out at 0.746.

Turning to `CCC(C)=O` [2-butanone], the odorant receptor activation was found to be 0.953.

For the compound `CCOc1cc(C=O)ccc1O` [ethyl vanillin], the odorant receptor activation was 0.955 and 1.27.

In turn, `CCCCOC(C)=O` [butyl acetate] yielded an odorant receptor activation of 1.27.

For a further experiment, the system named is OR5T1 clone 1249. The experiment is described as above. The following applies: 100 µM.
On to `CS` [methanethiol], for which the odorant receptor activation is 0.833.

Take `CCC(C)=O` [2-butanone]: the odorant receptor activation is 0.968.

Turning to `CCOc1cc(C=O)ccc1O` [ethyl vanillin], the odorant receptor activation is 0.527 and 1.17.

`CCCCOC(C)=O` [butyl acetate]: the odorant receptor activation came to 0.863.

A further experiment deals with OR5T1 clone 1399. Described as above. The following applies: 100 µM.
For `CS` [methanethiol], the odorant receptor activation amounted to 0.817.

In turn, `CCC(C)=O` [2-butanone] displayed an odorant receptor activation of 1.52.

For `CCOc1cc(C=O)ccc1O` [ethyl vanillin], the odorant receptor activation is 0.869 and 1.02.

`CCCCOC(C)=O` [butyl acetate] showed an odorant receptor activation of 0.193.
